Experiment [1] deals with UBQLN2 ΔUBLΔUBA (109-576) (UniProt Q9UHD9). The experiment in a line: recruitment to phase-separated droplets.
For experiment [2], the target named is UBQLN2 (human (endogenous in HCT116)) (UniProt Q9UHD9). The experiment can be described thus: co-IP.
Experiment [3] addresses UBQLN1 (human (endogenous in HCT116)) (UniProt Q9UMX0). The experiment in a line: co-IP.

By UniProt entry, the sequences of proteins in these tests, tags left out. Where a name states a change or a piece, a line headed by the entry shows the natural chain unless it says otherwise. Residues count along the entry.
UniProt Q9UHD9: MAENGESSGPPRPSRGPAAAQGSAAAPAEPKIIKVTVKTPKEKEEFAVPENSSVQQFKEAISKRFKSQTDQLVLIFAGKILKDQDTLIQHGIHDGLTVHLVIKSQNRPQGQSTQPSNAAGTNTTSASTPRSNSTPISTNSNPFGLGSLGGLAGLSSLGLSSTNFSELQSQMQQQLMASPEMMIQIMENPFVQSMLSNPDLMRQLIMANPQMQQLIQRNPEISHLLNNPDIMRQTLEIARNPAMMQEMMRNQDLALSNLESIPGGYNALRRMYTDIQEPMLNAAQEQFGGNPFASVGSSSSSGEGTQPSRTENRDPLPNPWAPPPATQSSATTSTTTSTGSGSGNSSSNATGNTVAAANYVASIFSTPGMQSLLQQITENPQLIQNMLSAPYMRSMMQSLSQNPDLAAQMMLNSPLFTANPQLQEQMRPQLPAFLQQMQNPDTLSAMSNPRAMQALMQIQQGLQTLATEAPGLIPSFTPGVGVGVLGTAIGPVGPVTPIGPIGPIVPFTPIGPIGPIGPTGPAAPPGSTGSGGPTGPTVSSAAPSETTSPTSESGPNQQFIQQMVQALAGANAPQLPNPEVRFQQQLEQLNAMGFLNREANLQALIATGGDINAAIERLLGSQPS
UBQLN2 ΔUBLΔUBA (109-576): residues 109-576 of Q9UHD9
UniProt Q9UMX0: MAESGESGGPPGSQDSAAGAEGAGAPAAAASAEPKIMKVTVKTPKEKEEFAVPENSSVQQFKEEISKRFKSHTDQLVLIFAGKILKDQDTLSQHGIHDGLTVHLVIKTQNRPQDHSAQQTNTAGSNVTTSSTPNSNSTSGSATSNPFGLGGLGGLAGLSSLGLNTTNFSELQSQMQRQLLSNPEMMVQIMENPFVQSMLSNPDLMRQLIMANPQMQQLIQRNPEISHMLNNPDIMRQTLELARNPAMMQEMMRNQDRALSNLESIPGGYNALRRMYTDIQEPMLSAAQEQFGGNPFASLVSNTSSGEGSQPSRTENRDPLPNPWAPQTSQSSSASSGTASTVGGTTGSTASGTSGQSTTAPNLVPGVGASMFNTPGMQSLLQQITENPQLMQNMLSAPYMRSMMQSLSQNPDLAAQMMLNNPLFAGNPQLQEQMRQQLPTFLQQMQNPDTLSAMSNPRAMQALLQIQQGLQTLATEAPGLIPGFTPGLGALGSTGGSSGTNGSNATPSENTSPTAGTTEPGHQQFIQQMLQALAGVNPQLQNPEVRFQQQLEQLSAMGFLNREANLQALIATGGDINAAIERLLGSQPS
UniProt Q05086: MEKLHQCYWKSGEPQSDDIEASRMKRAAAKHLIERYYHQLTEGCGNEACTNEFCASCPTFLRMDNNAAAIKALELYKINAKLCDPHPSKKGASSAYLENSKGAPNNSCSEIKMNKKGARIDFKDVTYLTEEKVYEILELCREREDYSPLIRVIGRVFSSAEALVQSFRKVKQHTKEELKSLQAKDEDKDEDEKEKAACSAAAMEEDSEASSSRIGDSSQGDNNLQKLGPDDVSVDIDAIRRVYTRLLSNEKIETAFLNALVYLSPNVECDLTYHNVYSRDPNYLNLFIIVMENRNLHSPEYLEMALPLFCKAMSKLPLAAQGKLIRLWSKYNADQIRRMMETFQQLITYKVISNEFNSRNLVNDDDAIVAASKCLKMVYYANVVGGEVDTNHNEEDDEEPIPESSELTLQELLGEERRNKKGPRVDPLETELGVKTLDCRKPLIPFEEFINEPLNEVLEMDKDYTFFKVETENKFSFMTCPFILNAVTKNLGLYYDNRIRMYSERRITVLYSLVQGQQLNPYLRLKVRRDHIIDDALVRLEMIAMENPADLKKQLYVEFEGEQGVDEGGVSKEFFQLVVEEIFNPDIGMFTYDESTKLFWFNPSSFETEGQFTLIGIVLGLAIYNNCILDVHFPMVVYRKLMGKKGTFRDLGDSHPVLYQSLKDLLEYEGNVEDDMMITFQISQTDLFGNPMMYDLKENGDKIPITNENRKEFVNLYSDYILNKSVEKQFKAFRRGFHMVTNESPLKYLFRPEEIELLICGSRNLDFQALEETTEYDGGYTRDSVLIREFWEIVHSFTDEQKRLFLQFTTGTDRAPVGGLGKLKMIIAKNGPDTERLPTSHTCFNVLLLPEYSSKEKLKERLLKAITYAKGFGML
UniProt P55036: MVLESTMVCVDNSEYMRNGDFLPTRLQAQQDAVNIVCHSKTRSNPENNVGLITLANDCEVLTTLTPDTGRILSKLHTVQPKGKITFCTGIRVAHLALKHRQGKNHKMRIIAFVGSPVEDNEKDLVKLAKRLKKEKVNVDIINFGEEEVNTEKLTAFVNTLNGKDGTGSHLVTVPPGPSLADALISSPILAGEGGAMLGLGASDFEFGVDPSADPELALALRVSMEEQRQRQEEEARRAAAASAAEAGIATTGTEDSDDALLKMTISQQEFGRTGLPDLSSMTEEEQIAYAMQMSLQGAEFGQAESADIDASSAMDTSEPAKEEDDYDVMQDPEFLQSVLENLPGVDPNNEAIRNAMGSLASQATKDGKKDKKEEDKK

Among the data in doi:10.1101/2022.09.29.510132 are binding values, retold here.

No constants are given. Whether binding was seen depends on the method and setting. For some of these results: In cells and extracts the contact can be indirect. Some binding calls cover weakened binding; strength is not graded here.

As to “AZUL-mEGFP (from UniProt Q05086 24-87) (domain or fragment)”, in experiment [1], the binding entry is “no binding (tested: 25 µM AZUL-mEGFP)”. On to “E6AP (from UniProt Q05086 1-875) (enzyme)”, for which the binding result in experiment [2] was “binds”. In the case of hRpn10 (from UniProt P55036 1-377), the binding result in experiment [3] and in experiment [2] was “binds” throughout.
